# PubChem BioAssay AID743454 – Peter MacCallum Cancer Centre, 2014
# Assay: 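Search for knock-downs that restore vorinostat killing in resistant colon cancer cells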 (primary screen)
# System: human HCT116-VR colon cancer cells, selected for vorinostat resistance
# Knock-down reagent: siRNA pool against human genes, 40 nM siRNA pool
# Time to read-out: vorinostat for 24 h, read-out about 72 h after transfection
# Conditions: vorinostat at 2.5 µM final
# Measured: 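Cell viability by CellTiter-Fluor and caspase 3/7 activity by luminescence, each scaled to mock wells per plate, duplicates averaged, then robust z-scored over all plates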
# Scale: viability robust z-score: higher = more viable cells than screen typical; caspase robust z-score: higher = more caspase 3/7 activity than screen typical
# Active means: 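a knock-down is a hit when classed RV1 or RV2 for lowered viability, or CA1 or CA2 for caspase activation; those lethal without drug were dropped; hits were retested singly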
# Shown is an unselected part of about 18,000 reagents. 450 of all reagents (2.5%) were called active. 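Single biological run; no consistent viability z cut-off exists, so the class columns, not z-scores, define the calls.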 A number with no mark means an inactive call.
gene,viability hit class,caspase hit class,viability robust z-score,caspase robust z-score
RGS13 (GeneID 6003),no change,no change,-0.3,-0.73
FGF13 (GeneID 2258),no change,no change,-0.04,-0.57
BCL2L12 (GeneID 83596),no change,no change,-0.96,2.84
DOLPP1 (GeneID 57171),no change,no change,-0.42,2.25
GNL3 (GeneID 26354),no change,no change,-1.42,0.26
DAZAP2 (GeneID 9802),no change,no change,-0.2,-0.61
BACC1 (GeneID 124944),no change,no change,0.54,0.42
INTS12 (GeneID 57117),no change,no change,-1.99,3.62
LMO2 (GeneID 4005),no change,no change,1.42,-0.47
DHDDS (GeneID 79947),no change,no change,1.11,1
PATZ1 (GeneID 23598),no change,no change,0.55,0.02
CABS1 (GeneID 85438),no change,no change,0.1,-0.02
DIO1 (GeneID 1733),no change,no change,-5.35,-0.23
TMEM44 (GeneID 93109),no change,no change,-1.76,-0.96
CBX8 (GeneID 57332),no change,no change,0.83,-0.55
RBMS3 (GeneID 27303),no change,no change,-0.75,-0.4
FOXD2 (GeneID 2306),no change,no change,-0.39,-0.04
SPATA16 (GeneID 83893),no change,no change,0.22,3.08
DYNC1H1 (GeneID 1778),no change,no change,0,-0.32
HECTD3 (GeneID 79654),no change,no change,-0.06,0.1
RAD23A (GeneID 5886),no change,no change,-0.36,-0.19
LIX1 (GeneID 167410),no change,no change,0.16,-0.52
EXOC3 (GeneID 11336),no change,no change,-0.38,-1.05
CDNF (GeneID 441549),no change,no change,0.99,0.42
TXNL1 (GeneID 9352),no change,no change,0.97,0.28
DMGDH (GeneID 29958),no change,no change,0.27,1.27
RPP14 (GeneID 11102),no change,no change,0.2,-0.5
GPRASP1 (GeneID 9737),no change,no change,-0.33,0.92
HNRNPU (GeneID 3192),no change,no change,-0.3,2.7
HDHD2 (GeneID 84064),no change,no change,0.38,0.12
ODF2 (GeneID 4957),no change,no change,0.28,2.25
WNT3A (GeneID 89780),no change,no change,1.21,2.62
RGS22 (GeneID 26166),no change,no change,0.18,0.32
WHR1 (GeneID 8859),no change,no change,0.05,-0.06
INPP5J (GeneID 27124),no change,no change,-0.48,4.15
BEX2 (GeneID 84707),no change,no change,-0.82,0.36
BCL2L13 (GeneID 23786),no change,no change,0.57,-0.22
GPR180 (GeneID 160897),no change,no change,-0.22,-0.43
WNK3 (GeneID 65267),no change,no change,0.66,-0.42
BCAS2 (GeneID 10286),no change,no change,-1.84,-0.18
PCID2 (GeneID 55795),no change,no change,0.15,0.34
FUBP3 (GeneID 8939),no change,no change,1.07,0.85
MARCHF4 (GeneID 57574),no change,no change,0,3.64
IL17RB (GeneID 55540),no change,no change,-0.86,-0.16
TAS2R43 (GeneID 259289),no change,no change,-1.56,1.78
METTL14 (GeneID 57721),no change,no change,0.76,0.08
OR4D9 (GeneID 390199),no change,no change,-0.45,2.33
GPCPD1 (GeneID 56261),no change,no change,1.26,-0.16
SEC13 (GeneID 6396),no change,no change,-1.52,0.85
CKAP2 (GeneID 26586),no change,no change,0.38,-0.53
TGDS (GeneID 23483),no change,no change,-2.05,3.15
CNN2 (GeneID 1265),no change,no change,0.55,1.1
OGFOD3 (GeneID 79701),no change,no change,0.08,-0.49
ZMAT3 (GeneID 64393),no change,no change,-0.25,-0.52
NDUFA11 (GeneID 126328),no change,no change,0.32,1.19
GRIN2C (GeneID 2905),no change,no change,-1,1.73
MERTK (GeneID 10461),no change,no change,-0.53,3.37

Only “caspase robust z-score” (2 entries from above):
EXOC3 (GeneID 11336) = -1.05
CDNF (GeneID 441549) = 0.42
